# Assay results taken from PubChem BioAssay AID1259415 (National Center for Advancing Translational Sciences (NCATS), 2018).
# In all, about 410,000 compounds went through this assay and about 18,000 (4.4%) were called active. Inconclusive results, whose numbers are uncertain, are shown with a selection of clear calls. Cut-off read from the data, not from the text of the source: active = activity change below about -60%; inconclusive = no clear call, values can overlap the other calls; inactive = above about -39%.
# Assay: qHTS Assay for inhibitors of the human cytomegalovirus (HCMV)
# Conditions: HFF cells, HCMV-luciferase reporter, 72 h; at 57.5 µM; active compounds read low
# How it was run: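 Luciferase read-out from HCMV-luciferase-infected HFFs (MOI 1 PFU/cell) 72 h post infection at 37C; compounds added after 16 h cell attachment; activity normalized between buffer-only basal and Salinomycin (10uM) inhibitor controls.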
# % is set by controls: 0 for no effect and ±100 for the full control effect.
row,Structure (SMILES),"activity change, negative = inhibition"
1,CCOc1ccccc1NC(=O)C1CCN(S(C)(=O)=O)CC1,inactive: -36.6%
2,Cc1cccc(C(=O)Nc2nnc(COc3ccccc3)s2)c1,inconclusive: -49.4%
3,CC(=O)c1ccc(NS(=O)(=O)c2ccccc2)cc1,inconclusive: -46.7%
4,Cc1ccccc1Cn1c(=O)n(CCC(=O)NCc2ccco2)c(=O)c2sccc21,inconclusive: -46.4%
5,Cc1cccc(-n2ncc3c2CCCC3NC(=O)CCN2CCCO2)c1C (stereo not given),active: -75.9%
6,O=C(/C=C/c1ccccc1)Oc1ccccc1C(=S)N1CCOCC1,inconclusive: -41.4%
7,CC(=O)Nc1ccc(-c2csc(NNC(=O)c3ccc(C)cc3)n2)cc1,inconclusive: -41.5%
8,CCOc1nc(Nc2ccc(OC)c(Cl)c2)nc(N2CCN(c3ccc(OC)cc3)CC2)n1,inconclusive: -44.9%
9,C#CCn1c(=NC(=O)CN2C(=O)CCC2=O)sc2cccc(OC)c21,inactive: -39.3%
10,CC(C)c1ccc(CN2C(=O)C(n3ccc4ccccc43)c3cc(Cl)ccc32)cc1 (stereo not given),active: -75.9%
11,CCN(CC)Cc1c(O)ccc2c1O/C(=C\C=C\c1ccccc1)C2=O,inconclusive: -57.9%
12,COc1ccc(NC(=O)N2C[C@H]3[C@@H](c4ccccc42)[C@@H](CO)N3C(=O)C2CC2)cc1,inactive: 11.9%
13,Cc1ccc(S(=O)(=O)N2c3ccccc3OCC2c2ccccc2)cc1 (stereo not given),inconclusive: -43%
14,NC(=O)Nn1c(CCC(=O)O)ccc1-c1ccc(F)cc1,active: -93.3%
15,Cc1cc(C)c2c3c(sc2n1)C(c1cccc(F)c1)C(C#N)=C(N)O3 (stereo not given),inconclusive: -41.6%
16,Cc1nn(CC(=O)N2CCN(c3cccc(Cl)c3)CC2)c(=O)c2c1sc1ccccc12,inactive: 26.2%
17,CCc1ccc(CN2CCN(Cc3cc(Br)ccc3O)CC2)cc1,inconclusive: -43.2%
18,CC(C)C[C@H]1COc2cc(NCc3ccc(Cl)c(Cl)c3)ccc2S(=O)(=O)N1,inactive: -13%
19,COc1cc(Br)ccc1C1C(C(=O)Nc2ccc(C)cc2C)=C(C)Nc2nnnn21 (stereo not given),inconclusive: -45.3%
20,CC(C)CN1CC(=O)N2C(c3ccccc3)c3[nH]c4ccccc4c3C[C@H]2C1=O (stereo not given in full),inactive: 7.56%
21,Cc1nn(Cc2ccc(Cl)c(Cl)c2)c(C)c1NC(=O)c1cc(-c2ccco2)on1,inconclusive: -55.5%
22,COc1cccc(C2c3c(-c4ccccc4O)n[nH]c3C(=O)N2Cc2cccnc2)c1 (stereo not given),inactive: 11.6%

# Ordered by molar mass (ascending): some entries from above.
row,Structure (SMILES),"activity change, negative = inhibition"
1,CCOc1ccccc1NC(=O)C1CCN(S(C)(=O)=O)CC1,inactive: -36.6%
6,O=C(/C=C/c1ccccc1)Oc1ccccc1C(=S)N1CCOCC1,inconclusive: -41.4%
18,CC(C)C[C@H]1COc2cc(NCc3ccc(Cl)c(Cl)c3)ccc2S(=O)(=O)N1,inactive: -13%

# (more compounds)

row,Structure (SMILES),"activity change, negative = inhibition"
1,O=S(=O)(Nc1ccc(-c2ccc(N3CCCC3)nn2)cc1)c1ccc(OC(F)(F)F)cc1,inactive: 28.3%
2,Cc1cc(=O)[nH]c(N/N=C/c2c(C)nn(-c3ccccc3)c2Cl)n1,inactive: 0%
3,CN(C)S(=O)(=O)c1cc(C(=O)Nc2ccccc2C(=O)NC2CC2)ccc1Cl,inconclusive: -51.6%
4,CC1CCCCC12NC(=O)N(CC(=O)NCc1cccs1)C2=O (stereo not given),inconclusive: -59.4%
5,Cc1ccc(C(=O)Nc2nc3c(s2)CCCC3)o1,inactive: 68.7%
6,CC1=CC(=O)c2ccccc2C1=O,inconclusive: -43.3%
7,COc1ccc(-c2[nH]ncc2/C=N\NC(=O)c2cccs2)cc1OC,inactive: -1.43%
8,S=c1[nH]nc(-c2ccncc2)n1/N=C/C=C/c1ccco1,inconclusive: -49.2%
9,CC(C)(C)C(=O)Nc1ccc(C(=O)N/N=C/c2ccccc2OC(=O)c2ccccc2)cc1,inactive: -34.9%
10,COc1ccccc1NC(=S)NCCC(c1ccccc1)c1ccccc1,inconclusive: -46.5%
11,C=Cc1ccc(Cn2c(C(=O)O)c(CNCc3ccccc3)c3ccc(OC)cc32)cc1,inconclusive: -58.3%
12,CCOc1ccccc1C(=O)Nc1nnc(SCC(=O)N2CCCC2)s1,inconclusive: -52.4%
13,O=C(CS(=O)CC(=O)N(c1ccccc1)C(C(=O)NC1CCCCC1)c1ccco1)Nc1ccc(F)cc1 (stereo not given),inconclusive: -41%
14,O=C(CCc1nnc(-c2ccc3c(c2)OCO3)o1)NC(c1ccccn1)C(F)(F)F (stereo not given),inactive: -7.85%
15,O=C(Nc1cccc(F)c1)C1CCCN(c2cnccn2)C1 (stereo not given),inconclusive: -43.7%
16,COc1ccc(C(=O)NCC(c2ccco2)N(C)C)cc1S(=O)(=O)NCc1ccc(Cl)cc1 (stereo not given),inconclusive: -41.4%
17,CCOC(=O)[C@@H]1[C@H]2COc3cc(OC)ccc3[C@H]2N2C(=O)N(c3ccc(F)cc3)C(=O)[C@@]12C,inconclusive: -50%
18,O=C(NCc1ccc(F)c(F)c1)C1CCC(=O)N(CC2CCCCC2)C1 (stereo not given),inconclusive: -48.8%
19,Clc1ccc(CNc2ccc(CNc3ncn[nH]3)cc2)cc1,inconclusive: -58.7%
20,COc1cc(Cl)c(NC(=O)CN(C)S(=O)(=O)c2ccc3c(c2)CCCC(=O)N3)c(OC)c1,inconclusive: -47.5%
21,O=c1c2ccccc2c(-c2ccc(Cl)cc2)nn1-c1ccccc1,active: -63.4%
22,CC(C)CN(CC(C)C)C(=S)Nc1ccc(Cl)cc1,inconclusive: -41.7%

row,Structure (SMILES),"activity change, negative = inhibition"
1,CCn1cc(C(=O)N2CCCCC2)c2ccccc21,inconclusive: -40.4%
2,Cc1ccc(S(=O)(=O)N2CCCCC2)cc1NC(=O)c1ccc(Br)o1,inactive: 1.5%
3,COc1cccc(NC(=O)C2CCN(S(=O)(=O)c3ccccc3)CC2)c1,inactive: -33.7%
4,COc1ccc(Cl)cc1NC(=O)CSc1nc(=O)[nH]c2c1CCCC2,inactive: 31.1%
5,CC/C(=N\NC(=O)c1nnn(-c2nonc2N)c1-c1cccc(OC)c1)c1ccc(C)cc1,inactive: -34.7%
6,Cc1ccn2c(-c3csc(NCc4ccco4)n3)c(C)nc2c1,active: -68.2%
7,COCCCNCCCOc1ccc(C)cc1Br,active: -63%
8,COc1ccc(N2CCN(C(CNC(=O)C(=O)NCc3ccc4c(c3)OCO4)c3ccco3)CC2)cc1 (stereo not given),inconclusive: -59.4%
9,OCCCNc1ncnc2c1ncn2[C@H]1CN(C2CCCC2)C[C@@H](CO)O1,inconclusive: -46.8%
10,Cc1ccc(S(=O)(=O)NCCC(=O)NCCSc2ccc(Br)cc2)cc1,inconclusive: -42.9%
11,Cc1cccc(-c2onc3ccc(C4(C)OCCO4)cc23)c1,inconclusive: -41%
12,CCS(=O)(=O)c1cccc(C(=O)N2CCN(c3nc4c(C)ccc(Cl)c4s3)CC2)c1,inconclusive: -54.2%
13,N#Cc1ccc(CSc2ncnc3c2cnn3Cc2ccccc2)cc1,inactive: 5.94%
14,Cc1ccccc1NC(=O)Cn1cnc2c(oc3nc4c(cc32)CCCC4)c1=O,inconclusive: -54.8%
15,ON=C1C2CC=C(c3ccccc3)C1CCC2 (stereo not given),inactive: 6.9%
16,COc1ccccc1NC(=O)c1sc2ncn(Cc3cccc4ccccc34)c(=O)c2c1C,inconclusive: -47.9%
17,COc1cc(NC(=O)c2ccc(F)cc2)c(OC)cc1NC(=O)CN1CCOCC1,inconclusive: -43.6%
18,CCCn1c(=O)c2sccc2n2c(CCCC(=O)Nc3ccc(Oc4ccccc4)cc3)nnc12,active: -60.9%
19,CCN(CC)S(=O)(=O)c1ccc(C(=O)NCC(c2ccc(OC)cc2)N2CCOCC2)cc1 (stereo not given),inconclusive: -52.2%
20,COC(=O)[C@@]1(Cc2ccc(F)cc2)[C@H]2c3cc(C(=O)N4CCCC4)n(Cc4ccc(OC(F)(F)F)cc4)c3C[C@H]2CN1C(=O)c1ccccc1,inconclusive: -40.3%
21,CCCN(CCC)CCNC(=S)Nc1ccc2nc3n(c(=O)c2c1)CCCCC3,inconclusive: -55.2%
22,Cc1csc2ncnc(N3CCN(C(=S)Nc4ccc(C(F)(F)F)cc4)CC3)c12,active: -71%

row,Structure (SMILES),"activity change, negative = inhibition"
1,COC(=O)c1cc(OC)nc2c1c(=O)n(C)c(=O)n2C,inconclusive: -50.6%
2,CNC(=O)COC(=O)c1cccc(S(=O)(=O)N2CCN(c3ccc(F)cc3)CC2)c1,inactive: -8.51%
3,C[C@@H](NC(=O)c1ncn2c1C(=O)NC[C@@H]2C)c1ccccc1,inconclusive: -46.2%
4,CCCC(C(=O)NCCC(C)C)N(Cc1ccccc1)C(=O)c1snc(C(N)=O)c1N (stereo not given),inconclusive: -59.7%
5,O=C1ON=C(c2cccc([N+](=O)[O-])c2)/C1=C/c1ccc(O)cc1,inactive: 48.4%
6,Cc1cccc(C(=O)Nc2cc(OCc3cccc(F)c3)c(Cl)cc2Cl)c1,inactive: -12.2%
7,CCN1C(=O)C(CC(=O)N2CCN(C(c3ccccc3)c3ccccc3)CC2)N(CC)C1=O (stereo not given),inactive: 19.7%
8,O=C1CCc2cc(Br)ccc2O1,inconclusive: -52.2%
9,COc1ccc(CNS(=O)(=O)c2ccc3c(c2)CCN3C(=O)C2CCC2)cc1,inconclusive: -49.7%
10,COc1ccc(OCC2c3cc(OC)c(OC)cc3CCN2C(=O)COc2ccc(Cl)cc2Cl)cc1 (stereo not given),inconclusive: -52.3%
11,O=c1[nH]c(C2CCCN(S(=O)(=O)c3ccccc3)C2)nc2c1nnn2Cc1ccccc1F (stereo not given),inconclusive: -50.1%
12,COc1ccc(NC(=O)C2(C)Cc3c(-c4ccc5c(c4)OCO5)ccnc3O2)cn1 (stereo not given),inconclusive: -57.4%
13,COc1cc2c(cc1NC(=O)Nc1ccc(F)cc1)oc1ccccc12,active: -65.6%
14,CCOC(=O)c1ccc(NC(=S)NCc2cccnc2)cc1,inconclusive: -52.5%
15,COc1ccc(N2CCn3c2nc2c3c(=O)n(CCCc3ccccc3)c(=O)n2C)c(OC)c1,active: -90.5%
16,COc1ccccc1-c1noc2ncnc(Nc3ccc4c(c3)OCO4)c12,inconclusive: -45.1%
17,COc1ccccc1CNc1nc2ccccc2n1CCN1CCCCC1,inconclusive: -54.1%
18,CCCn1c(SCC(=O)C(C)(C)C)nc2ccccc21,active: -67.2%
19,COc1ccc(/C(C)=N\Nc2nc(-c3ccc(Cl)cc3)cc(C(F)(F)F)n2)cc1OC,inconclusive: -44.9%

# Gathered by group, those above with a thiophene ring, fused or not (8)
row,Structure (SMILES),"activity change, negative = inhibition"
4,Cc1ccccc1Cn1c(=O)n(CCC(=O)NCc2ccco2)c(=O)c2sccc21,inconclusive: -46.4%
15,Cc1cc(C)c2c3c(sc2n1)C(c1cccc(F)c1)C(C#N)=C(N)O3 (stereo not given),inconclusive: -41.6%
16,Cc1nn(CC(=O)N2CCN(c3cccc(Cl)c3)CC2)c(=O)c2c1sc1ccccc12,inactive: 26.2%
4,CC1CCCCC12NC(=O)N(CC(=O)NCc1cccs1)C2=O (stereo not given),inconclusive: -59.4%
7,COc1ccc(-c2[nH]ncc2/C=N\NC(=O)c2cccs2)cc1OC,inactive: -1.43%
16,COc1ccccc1NC(=O)c1sc2ncn(Cc3cccc4ccccc34)c(=O)c2c1C,inconclusive: -47.9%
18,CCCn1c(=O)c2sccc2n2c(CCCC(=O)Nc3ccc(Oc4ccccc4)cc3)nnc12,active: -60.9%
22,Cc1csc2ncnc(N3CCN(C(=S)Nc4ccc(C(F)(F)F)cc4)CC3)c12,active: -71%
